Source: paper PMC5461336, “Non-canonical Glucocorticoid Receptor Transactivation of gilz by Alcohol Suppresses Cell Inflammatory Response”
For at least one entry, the source does not settle the construct or the ends of the probe. At least one verdict was read from the data and is not stated in words by the source. Tags and fusion partners may be left off the protein sequences shown.

Target: T1, Glucocorticoid receptor (Hu-GR), unliganded (human) (UniProt P04150)
T1 sequence (looked up, limits assumed): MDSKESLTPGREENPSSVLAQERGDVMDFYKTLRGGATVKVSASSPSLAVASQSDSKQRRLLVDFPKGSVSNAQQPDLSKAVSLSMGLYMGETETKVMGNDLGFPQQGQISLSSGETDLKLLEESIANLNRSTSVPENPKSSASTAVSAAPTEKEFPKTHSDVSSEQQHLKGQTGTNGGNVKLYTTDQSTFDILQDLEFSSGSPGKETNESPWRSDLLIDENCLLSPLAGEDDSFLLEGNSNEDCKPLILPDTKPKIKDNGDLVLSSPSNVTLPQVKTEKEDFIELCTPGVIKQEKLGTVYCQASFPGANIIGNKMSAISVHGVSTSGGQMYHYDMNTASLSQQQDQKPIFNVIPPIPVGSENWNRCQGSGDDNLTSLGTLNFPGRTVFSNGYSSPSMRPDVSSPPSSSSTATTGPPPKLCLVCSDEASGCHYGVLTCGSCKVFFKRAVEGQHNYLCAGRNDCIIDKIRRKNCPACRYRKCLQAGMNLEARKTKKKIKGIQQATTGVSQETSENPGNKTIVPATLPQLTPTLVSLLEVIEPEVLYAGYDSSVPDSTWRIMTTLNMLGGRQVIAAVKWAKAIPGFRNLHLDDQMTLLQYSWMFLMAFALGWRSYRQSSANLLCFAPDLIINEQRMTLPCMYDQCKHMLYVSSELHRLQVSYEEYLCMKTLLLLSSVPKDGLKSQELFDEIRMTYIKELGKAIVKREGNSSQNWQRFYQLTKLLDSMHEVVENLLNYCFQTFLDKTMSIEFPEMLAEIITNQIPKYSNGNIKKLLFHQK
Test: EMSA
Details: 25, 50 or 100 mM ethanol, no glucocorticoid; GR 40 ng (0.5 pmol), probe 0.5 ng (0.05 pmol), 1 ug poly(dI-dC), 25 ul; 6% non-denaturing PAGE; pH and temperature not stated; recombinant protein; label: 32P 5'-end

Row | Sequence | binding result
1 | CAAACTAGCGCTGTTCTTTACTGAATGCCC (double strand) [Wt-GRE1] | binds
2 | GGTGGAACCCAATGTTCTCCTTTGGTCCTG (double strand) [Wt-GRE2] | binds
